Test results: PubChem BioAssay AID624297 (National Center for Advancing Translational Sciences (NCATS), 2012)
About 6,200 (1.8%) of roughly 340,000 compounds were called active. This list was built around the results that the source calls inconclusive (neither active nor inactive); the mix of calls is not that of the screen. The call rests on the fitted dose curve; in most records, active means well fitted activation curve with a large enough effect; inconclusive means small, poorly fitted or top-dose-only effect; inactive means no such curve, though single readings can be large or run the other way. A potency beside an inconclusive call is a rough fit, not a confirmed value.

assay: A quantitative high throughput screen for small molecules that induce DNA re-replication in SW480 colon adenocarcinoma cells.; further: nearly all actives have a fitted effect of over 55% in size; on re-replication activation: % of control where 0% means no effect; details: Hoechst DNA content imaging, 48 h; re-replication activation: at 46.1 µM (top of the series) unless noted
How it was run: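 Per well, 250 cells were exposed to pinned compound for 48 hr. Nuclear DNA was visualised with Hoechst (40 min, 37 C) and total object intensity recorded by fluorescence scanning.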
Potency means the concentration at half of the fitted maximal effect.

Q: For CC1C[N+](=C2C=C(N3CCOCC3)CC(C)(C)C2)CC(C)O1 (centres undefined), which “re-replication activation” value is on record?
A: inactive: 0.81%

Q: With CCC(CC)C(=O)Nc1nnc(S(=O)(=O)N2CCCc3ccccc32)s1 as the compound, how does the “re-replication activation” value read?
A: inactive: 0.237%

Q: With COCCn1nnnc1C(c1ccccc1)N1CCN(Cc2ccc3c(c2)OCO3)CC1 (centres undefined) as the compound, how does the “re-replication activation” value read?
A: inactive: -1.87%

Q: With S=c1[nH]nc(-c2ccccc2)n1/N=C/c1cccs1 as the compound, how does the “re-replication activation” value read?
A: inactive: 1.04%

Q: With COC(=O)C1(Cc2cc(-c3cccc(Br)c3)no2)CCN(C(=O)OC(C)(C)C)CC1 as the compound, how does the Potency read?
A: inconclusive: 3.66 µM [activator, partial curve, poor fit]

Q: For COc1cc(OC)cc(C(=O)N2CCN(C3CCC(C)CC3)CC2)c1 (centres undefined), which Potency is on record?
A: inconclusive: 0.731 µM [activator, single point]

Q: For CCN(Cc1ccccc1)c1ccc(/C=N/N=C(N)N)cc1, which Potency is on record?
A: inconclusive: 23.1 µM [activator, single point]

Q: With Cc1cccc2sc(N(CCN(C)C)C(=O)/C=C/c3cccs3)nc12 as the compound, how does the Potency read?
A: inconclusive: 29.1 µM [activator, single point]

Q: With CC1(C)Cc2c(cnn2-c2ccc(F)cc2)C(NC(=O)CCN2CCCC2=O)C1 (centres undefined) as the compound, how does the Potency read?
A: inconclusive: 18.4 µM [activator, single point]

Q: With CCn1c(CN2CCN(c3ccc(OC)cc3)CC2)nc2cc(S(=O)(=O)N(C)C)ccc21 as the compound, how does the Potency read?
A: inconclusive: 25.9 µM [activator, single point]

Q: For Cc1cc(C)c(C)c(/C=C(/C#N)C(N)=S)c1C, which Potency is on record?
A: inconclusive: 29.1 µM [activator, single point]

Q: Which Potency does the source give for COc1ccc(/C=N/N2CCOCC2)cc1COc1ccc(Cl)cc1 here?
A: inconclusive: 35.5 µM [activator, single point]

Q: For O=C(NCCCN1CCOCC1)c1cc(Cl)ccc1Cl, which Potency is on record?
A: inconclusive: 11.6 µM [activator, single point]

Q: With CCOC(=O)N1CCN(C(=O)CCc2cc(OC)c(OC)c(OC)c2)CC1 as the compound, how does the “re-replication activation” value read?
A: inactive: -3.67%

Q: Which “re-replication activation” value does the source give for CN1C(=O)CSC1=Nc1cccc(Cl)c1 here?
A: inactive: -4.83%

Q: With CN(C)c1oc(-c2ccccc2Cl)nc1P(=O)(c1ccccc1)c1ccccc1 as the compound, how does the Potency read?
A: inconclusive: 16.4 µM [activator, single point]

Q: For O=c1c(Cl)c(N/N=C/c2ccc(Br)cc2)cnn1-c1ccccc1, which Potency is on record?
A: inconclusive: 29.1 µM [activator, single point]

Q: With Cc1cccc(COc2ccccc2C(=O)OCC(=O)N(C)c2c(N)n(Cc3ccccc3)c(=O)[nH]c2=O)c1 as the compound, how does the “re-replication activation” value read?
A: inactive: 20.3%

Q: For Fc1ccc2cc(-c3ccccc3F)ncc2c1, which “re-replication activation” value is on record?
A: inactive: 13.4%

Q: With Cc1cc(C)n2nc(C(=O)N/N=C/c3c4ccccc4cc4ccccc34)nc2n1 as the compound, how does the Potency read?
A: inconclusive: 29.1 µM [activator, single point]

Q: With N#C/C(=C\c1ccc([N+](=O)[O-])o1)c1nc2ccccc2[nH]1 as the compound, how does the Potency read?
A: inconclusive: 29.1 µM [activator, single point]

Q: With O=C(N/N=C/c1ccccc1O)c1cc(=O)[nH]c2ccccc12 as the compound, how does the Potency read?
A: inconclusive: 13 µM [activator, partial curve, poor fit]

Q: Which Potency does the source give for CC(=O)Nc1ccc(S(=O)(=O)NCC(=O)OCC(=O)NCc2ccc3c(c2)OCO3)cc1 here?
A: inconclusive: 29.1 µM [activator, single point]

Q: With COc1ccc(NC(=O)c2cnc(SC)nc2)cc1 as the compound, how does the Potency read?
A: inconclusive: 29.1 µM [activator, single point]

Q: Which Potency does the source give for Cc1ccc(S(=O)(=O)CCc2nnc(NC(=O)CCl)s2)cc1C here?
A: inconclusive: 29.1 µM [activator, single point]

Q: Which Potency does the source give for CCCCC(=O)NNC(=S)NC(=O)c1ccc(C)cc1 here?
A: inconclusive: 29.1 µM [activator, single point]

Q: Which Potency does the source give for CN(CC(=O)NNC(=O)CCNS(=O)(=O)c1ccccc1)S(=O)(=O)c1ccc(Cl)cc1 here?
A: inconclusive: 0.0046 µM [activator, full curve, poor fit]

Q: Which “re-replication activation” value does the source give for C=C(C)CSc1nc2sc3c(c2c(=O)n1-c1ccc(OC)cc1)CCN(C)C3 here?
A: inactive: -10.6%

Q: With COCc1cc(N2CCOCC2)nc(-c2ccccc2)n1 as the compound, how does the Potency read?
A: inconclusive: 6.51 µM [activator, single point]

Q: For COc1ccc(C2CC(c3ccccc3)=NN2c2ccc(C(N)=O)cc2)cc1 (centres undefined), which Potency is on record?
A: active: 20.6 µM

Q: With CC(C)Cn1c(N)c(C(=O)COC(=O)c2ccccc2Cl)c(=O)n(C)c1=O as the compound, how does the “re-replication activation” value read?
A: inactive: 2.22%

Q: With COc1cc(NC(=O)C(Cc2ccccc2)n2cccc2)cc(OC)c1 (centres undefined) as the compound, how does the Potency read?
A: inconclusive: 0.58 µM [activator, partial curve, poor fit]

Q: For CCN(CC)C(=O)[C@H]1CC(CC(=O)NCCCOC)C(=O)N2CCc3c([nH]c4ccccc34)[C@]12C (some centres undefined), which Potency is on record?
A: inconclusive: 9.2 µM [activator, partial curve]

Q: For O=C(NNC(=O)c1cc(Cl)ccc1O)c1ccc(NS(=O)(=O)c2cccs2)cc1, which Potency is on record?
A: inconclusive: 31.6 µM [activator, single point]

Q: Which Potency does the source give for CC(C)CN1C2CCCC1CC(NC(=O)c1ccc([N+](=O)[O-])cc1)C2 (centres undefined) here?
A: inconclusive: 7.31 µM [activator, partial curve, poor fit]

Q: Which Potency does the source give for O=C(NC(=S)NNC(=O)c1ccccc1F)c1cccnc1 here?
A: inconclusive: 29.1 µM [activator, single point]

Q: With O=S(=O)(NCC(O)c1ccccc1)c1ccc(-c2ccccn2)s1 (centres undefined) as the compound, how does the Potency read?
A: active: 23.1 µM

Q: With O=C(Nc1ccc(Cn2ccnc2)cc1)c1cccc(C(F)(F)F)c1 as the compound, how does the “re-replication activation” value read?
A: inactive: -39.6%

Q: For Cn1c(SCc2c(F)cccc2Cl)nnc1-c1cccs1, which Potency is on record?
A: inconclusive: 29.1 µM [activator, partial curve, poor fit]

Q: Which Potency does the source give for C=C1CCc2c([nH]c3ccc(OCC(C)C)cc23)C1=O here?
A: inconclusive: 29.1 µM [activator, single point]

Q: With CCOc1cc2c(cc1OCC)C(c1ccc(O)c(OC)c1)NCC2 (centres undefined) as the compound, how does the Potency read?
A: inconclusive: 23.1 µM [activator, partial curve, poor fit]

Q: Which “re-replication activation” value does the source give for CC(Sc1n[nH]c(-c2ccccc2)n1)C(=O)c1c(N)n(C)c(=O)n(C)c1=O (centres undefined) here?
A: inactive: -2.09%

Q: Which Potency does the source give for C=CCn1cc(CN2CCC(C(=O)Nc3cccc(-c4cccc(Cl)c4)c3)CC2)c(C)n1 here?
A: inconclusive: 16.4 µM [activator, single point]

Q: Which Potency does the source give for CC(C)c1ccc(NC(=O)Cn2c(=O)oc3ccccc32)cc1 here?
A: inconclusive: 29.1 µM [activator, single point]
